Assay results as given in publication PMC11696430, “A Water-Soluble Small Molecule Boron Carrier Targeting Biotin Receptors for Neutron Capture Therapy” (ACS Omega, 2024).

System: CT26 cells
Experiment: Intracellular localization by immunostaining / boron sensor
Assay type: cell-based, mouse
Conditions: CT26, ca. 25 μg [B]/mL, 3 h

N[C@@H](Cc1ccc(B(O)O)cc1)C(=O)O [BPA, 4-borono-L-phenylalanine, reference compound]
subcellular distribution: widely distributed throughout the cell, including the nucleus
